Source: paper PMC11925928
Results are given in words; binding and its absence hold for the method and conditions named. Binding seen in cells or lysates may run through a third protein. These calls come from enrichment with a bait or labelling near it, and not all partners need be listed.

By UniProt entry, the sequences of proteins in these tests, tags left out. Residues count along the entry.
UniProt Q86YZ3: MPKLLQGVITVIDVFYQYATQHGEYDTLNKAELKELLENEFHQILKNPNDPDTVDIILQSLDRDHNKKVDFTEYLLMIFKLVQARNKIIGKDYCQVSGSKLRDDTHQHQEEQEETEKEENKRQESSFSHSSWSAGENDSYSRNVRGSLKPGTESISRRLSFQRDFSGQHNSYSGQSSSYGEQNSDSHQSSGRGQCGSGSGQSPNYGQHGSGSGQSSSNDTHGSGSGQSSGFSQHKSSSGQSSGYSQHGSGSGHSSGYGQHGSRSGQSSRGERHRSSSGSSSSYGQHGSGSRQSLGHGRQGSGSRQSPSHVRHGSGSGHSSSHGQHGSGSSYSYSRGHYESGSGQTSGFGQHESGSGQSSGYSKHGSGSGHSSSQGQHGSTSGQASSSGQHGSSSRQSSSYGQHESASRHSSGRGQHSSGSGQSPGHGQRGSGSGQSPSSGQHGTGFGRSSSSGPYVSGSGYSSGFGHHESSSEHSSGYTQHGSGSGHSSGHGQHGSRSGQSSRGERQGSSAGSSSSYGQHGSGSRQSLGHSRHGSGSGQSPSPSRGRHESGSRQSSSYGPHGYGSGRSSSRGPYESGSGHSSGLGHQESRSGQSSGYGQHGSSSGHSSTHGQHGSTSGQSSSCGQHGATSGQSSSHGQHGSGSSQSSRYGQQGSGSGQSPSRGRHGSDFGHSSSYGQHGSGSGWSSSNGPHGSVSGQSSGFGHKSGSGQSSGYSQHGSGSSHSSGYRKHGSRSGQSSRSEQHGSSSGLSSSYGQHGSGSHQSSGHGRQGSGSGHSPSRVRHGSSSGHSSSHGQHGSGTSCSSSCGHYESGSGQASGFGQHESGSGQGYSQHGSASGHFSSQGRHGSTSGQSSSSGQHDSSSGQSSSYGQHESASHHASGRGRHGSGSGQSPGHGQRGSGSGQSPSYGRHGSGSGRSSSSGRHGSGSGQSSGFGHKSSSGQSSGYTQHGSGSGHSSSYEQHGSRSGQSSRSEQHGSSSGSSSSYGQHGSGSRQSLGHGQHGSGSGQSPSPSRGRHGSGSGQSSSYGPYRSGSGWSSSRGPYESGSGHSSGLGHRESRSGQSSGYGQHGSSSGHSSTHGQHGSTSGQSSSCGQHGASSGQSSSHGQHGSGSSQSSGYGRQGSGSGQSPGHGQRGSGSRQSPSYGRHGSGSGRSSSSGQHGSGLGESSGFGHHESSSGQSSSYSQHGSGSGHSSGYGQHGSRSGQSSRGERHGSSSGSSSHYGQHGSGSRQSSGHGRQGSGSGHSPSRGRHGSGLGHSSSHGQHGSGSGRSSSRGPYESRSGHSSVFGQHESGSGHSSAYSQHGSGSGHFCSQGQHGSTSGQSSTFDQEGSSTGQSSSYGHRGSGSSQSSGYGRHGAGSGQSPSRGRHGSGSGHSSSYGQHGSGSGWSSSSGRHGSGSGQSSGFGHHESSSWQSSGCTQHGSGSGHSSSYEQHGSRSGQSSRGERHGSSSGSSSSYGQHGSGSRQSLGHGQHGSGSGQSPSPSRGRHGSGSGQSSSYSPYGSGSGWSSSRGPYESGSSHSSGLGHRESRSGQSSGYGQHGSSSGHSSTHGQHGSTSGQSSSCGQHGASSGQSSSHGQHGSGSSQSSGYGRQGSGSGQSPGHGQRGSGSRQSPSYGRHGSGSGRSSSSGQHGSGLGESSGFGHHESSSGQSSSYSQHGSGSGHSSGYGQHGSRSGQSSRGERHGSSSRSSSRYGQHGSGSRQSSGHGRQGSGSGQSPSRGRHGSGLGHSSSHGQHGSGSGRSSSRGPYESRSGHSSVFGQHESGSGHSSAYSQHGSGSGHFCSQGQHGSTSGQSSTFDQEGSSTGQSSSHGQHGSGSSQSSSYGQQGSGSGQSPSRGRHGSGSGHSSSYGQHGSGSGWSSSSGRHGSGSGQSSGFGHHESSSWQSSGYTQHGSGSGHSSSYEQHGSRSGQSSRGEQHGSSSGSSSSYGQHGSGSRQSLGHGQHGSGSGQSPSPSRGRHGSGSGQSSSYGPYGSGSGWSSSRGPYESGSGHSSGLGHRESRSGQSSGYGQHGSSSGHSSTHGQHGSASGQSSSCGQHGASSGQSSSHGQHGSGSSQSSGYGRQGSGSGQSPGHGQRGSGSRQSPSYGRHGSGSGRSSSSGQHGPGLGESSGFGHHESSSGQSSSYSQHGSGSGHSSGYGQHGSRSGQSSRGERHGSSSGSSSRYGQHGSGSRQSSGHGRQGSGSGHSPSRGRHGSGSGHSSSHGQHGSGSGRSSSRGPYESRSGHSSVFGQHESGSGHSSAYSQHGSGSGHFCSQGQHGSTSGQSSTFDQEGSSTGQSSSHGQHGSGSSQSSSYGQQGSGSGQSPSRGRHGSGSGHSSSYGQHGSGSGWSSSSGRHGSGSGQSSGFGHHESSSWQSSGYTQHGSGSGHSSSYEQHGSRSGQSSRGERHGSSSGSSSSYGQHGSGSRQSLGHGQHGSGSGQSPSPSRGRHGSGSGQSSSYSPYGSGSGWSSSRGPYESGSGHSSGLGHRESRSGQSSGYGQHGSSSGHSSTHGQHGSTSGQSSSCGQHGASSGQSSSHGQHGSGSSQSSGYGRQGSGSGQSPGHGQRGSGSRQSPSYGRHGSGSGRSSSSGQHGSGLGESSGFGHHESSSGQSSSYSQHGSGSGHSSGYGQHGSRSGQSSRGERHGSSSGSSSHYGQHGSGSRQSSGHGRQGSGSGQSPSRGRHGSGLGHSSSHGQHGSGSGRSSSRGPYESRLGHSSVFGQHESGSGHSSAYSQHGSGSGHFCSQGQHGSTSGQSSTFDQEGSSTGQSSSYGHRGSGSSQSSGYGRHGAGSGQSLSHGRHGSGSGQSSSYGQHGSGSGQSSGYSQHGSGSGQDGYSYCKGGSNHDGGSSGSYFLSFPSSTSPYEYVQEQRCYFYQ
UniProt P02545, residues 1-646: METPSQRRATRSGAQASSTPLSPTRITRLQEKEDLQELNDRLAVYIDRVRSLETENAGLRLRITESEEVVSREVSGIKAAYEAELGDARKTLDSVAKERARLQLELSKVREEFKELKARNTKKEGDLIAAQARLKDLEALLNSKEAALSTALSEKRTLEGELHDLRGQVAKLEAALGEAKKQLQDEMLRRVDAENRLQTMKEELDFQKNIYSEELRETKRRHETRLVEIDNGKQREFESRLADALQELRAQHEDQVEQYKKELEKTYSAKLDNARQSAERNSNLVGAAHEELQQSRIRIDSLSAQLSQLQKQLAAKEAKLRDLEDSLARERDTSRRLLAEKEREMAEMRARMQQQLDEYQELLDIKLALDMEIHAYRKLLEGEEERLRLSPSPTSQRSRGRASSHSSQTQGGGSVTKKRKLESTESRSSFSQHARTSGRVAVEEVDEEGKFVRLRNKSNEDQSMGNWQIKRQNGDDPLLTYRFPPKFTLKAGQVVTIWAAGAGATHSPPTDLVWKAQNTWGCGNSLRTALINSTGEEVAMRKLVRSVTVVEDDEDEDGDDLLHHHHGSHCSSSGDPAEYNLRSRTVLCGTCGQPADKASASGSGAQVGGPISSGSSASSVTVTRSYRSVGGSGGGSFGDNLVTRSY

Target: Cellular tumor antigen p53 (human (endogenous in HCT116)) (UniProt P04637)
Experiment: affinity purification with mass spectrometry; TF-chRDP: HCT116 cells (375 uM 5-FU for 9 h to activate p53; DMSO as control) dual cross-linked with 1% formaldehyde and 2 mM EGS; nuclei sonicated; endogenous p53 chromatin complexes immunoprecipitated overnight at 4°C with anti-p53 (sc-126) on Protein G beads; low salt, high salt and TE washes; on-bead trypsin digestion; nano LC-MS/MS, MaxQuant

For Hornerin (from UniProt Q86YZ3 1-2850), the binding was “binds”.

With “Prelamin-A/C; Lamin-A/C (from UniProt P02545 1-646)” the binding was “binds”.
